These results are taken from US6916471B2, “Red blood cells loaded with S-nitrosothiol and uses therefor” (Duke University, priority 1995, dated 2005).

A short description of the data set: Endogenous SNO-Hb and Hb(FeII)NO in blood by photolysis-chemiluminescence. The format is in vivo, rat. From the text: To determine if SNO-Hb is naturally occuring in the blood, and if so, its relationship to the O2 transport capacity and nitrosylated-heme content of red cells, we developed an analytical approach to assay the S-nitrosothiol and nitrosyl-heme content of erythrocytes (Table 2). […] Hb was then purified from red cells and assayed for RSNO and (FeII)NO content. Arterial blood contained significant levels of SNO-Hb, whereas levels were virtually undetectable in venous blood (Table 2). […] The arterial-venous distribution seen for SNO-Hb was reversed in the case of Hb(FeII)NO, which was detected in higher concentrations in partially deoxygenated (venous) erythrocytes (Table 2). Accordingly, the proportion of nitrosylated protein thiol and heme appears to depend on the oxygenation state of the blood. Consistent with these findings, Wennmalm and coworkers have shown that Hb(FeII)NO forms mainly in venous (partially deoxygenated) blood (Wennmalm, A., et al., Br. J. Pharmacol., 106(3):507-508 (1992)). However, levels of Hb(FeII)NO in vivo are typically too low to be detected (by EPR) and SNO-Hb is EPR-silent (i.e. it is not paramagnetic). Thus, photolysis-chemiluminesence represents an important technological advance, as it is the first methodology capable of making quantitative and functional assessments of NO binding to Hb under normal physiological conditions.
Blood was obtained from the left ventricle (arterial) and jugular vein (venous) of anesthetized Sprague-Dawley rats. […] Red blood cells were isolated by centrifugation at 800 g, washed three times in phosphate buffered saline at 4° C., lysed by the addition of 4-fold excess volume of deionized water containing 0.5 mM EDTA, and desalted rapidly across G-25 columns according to the method of Penefsky at 4° C. In 24 rats, Hb samples were divided in two aliquots which were then treated or not treated with 10-fold excess HgCl2 over protein concentration as measured by the method of Bradford. Determinations of SNO-Hb and Hb(FeII)NO were made by photolysis-chemiluminescence as described below. In 12 additional rats, further verification of the presence of SNO-Hb was made by assaying for nitrite after HgCl2 treatment. Specifically, samples (with and without HgCl2) were separated across Amicon-3 (Centricon filters, m.w. cut off 3,000) at 4° C. for 1 h, and the low molecular weight fractions collected in airtight syringes containing 1 μM glutathione in 0.5 N HCl. Under these conditions, any nitrite present was converted to S-nitrosoglutathione, which was then measured by photolysis-chemiluminescence (detection limit ˜1 nM). SNO-Hb was present in all arterial samples, and levels determined by this method (286±33 nM) were virtually identical to and not statistically different from those shown in Table 2. In venous blood, SNO-Hb was undetectable (0.00±25 nM); levels were not statistically different from those given above.
A highly sensitive photolysis-chemiluminescence methodology was employed. A somewhat similar assay has been used for measuring RSNOs (S-nitrosothiols) in biological systems (Gaston, B., et al., (1993); Stamler, J. S., et al., Proc. Natl. Acad. Sci. USA 89:7674-7677 (1992)). The method involves photolytic liberation of NO from the thiol, which is then detected in a chemiluminesence spectrometer by reaction with ozone. The same principle of operation can be used to cleave (and measure) NO from nitrosyl-metal compounds (Antonini, E. Brunori, M. In Hemoglobin and Myoglobin in Their Reactions with Ligands, American Elsevier Publishing Co., Inc., New York, pp. 29-31 (1971)). With adjustment of flow rates in the photolysis cell, complete photolysis of the NO ligand of Hb(FeII)NO could be achieved. […] UV/VIS spectroscopy confirmed that NO remained attached to heme in the presence of excess HgCl2.

With “Hb(FeI)NO: hemoglobin with NO bound at the heme, endogenous in blood”, the “Hb(FeI)NO endogenous level in blood” value stood at 536 ± 99 nm (Arterial (left ventricle)) and 894 ± 126 nm (Venous (jugular vein)).

Take S-nitrosohemoglobin [SNO-Hb]: the “SNO-Hb endogenous level in blood” value reads like this: (Arterial (left ventricle)) 311 ± 55 nM; (Venous (jugular vein)) 32 ± 14 nM. Moreover, the “SNO-Hb level by nitrite assay after HgCl2 treatment” value runs as follows: (arterial samples) 286 ± 33 nM; (venous blood) 0.00 ± 25 nM.
